Data as given in PubChem BioAssay AID652259 (Drosophila RNAi Screening Center, 2013).
Test: 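Knock-downs that push a Wingless-driven reporter up or down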 (primary screen). Cell system: Drosophila clone 8 imaginal disc epithelial cells. Knock-down reagent: long dsRNA against Drosophila genes. Conditions: pathway stimulated by co-transfected Wingless expression plasmid. Measured: 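Firefly luciferase from a tcf-site Wingless reporter, measured alongside co-transfected Renilla luciferase that tracks transfection; pathway stimulated by a Wingless plasmid; the firefly-to-Renilla ratio is not deposited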. Reading the numbers: firefly reporter light: higher = more Wg reporter light, before normalisation; Renilla control light: higher = more transfected or surviving cells. Rule for the call: 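Strong candidates differ from their plate mean by at least two out of four per-plate statistical tests; weak candidates meet just one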. Meaning of the calls: active = candidate regulator (raises or lowers reporter); inactive = not a candidate.
In all, the deposit lists about 22,000 reagents; this is a random part of those that have a named target and a result. Of all reagents, 233 (1.1%) got an active call. 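Light values are raw, unnormalised plate reads; the ratio scores behind the reporter calls were not deposited.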 Reagents against one gene are numbered here. Names joined by + are all predicted targets of the reagent. The record does not give: the amount of reagent, the time to read-out, the dose of the treatment.

The opening 2 records, to show the layout:
Target gene	dsRNA no.	reporter change call, replicate 1	firefly reporter light, replicate 1	firefly reporter light, replicate 2	Renilla control light, replicate 1	Renilla control light, replicate 2	activity call
vri (vrille)	1		4658	7233	516	875	inactive
CG15550	1		5041		2202		inactive

Main list, repeating the preview:
Target gene	dsRNA no.	reporter change call, replicate 1	firefly reporter light, replicate 1	firefly reporter light, replicate 2	Renilla control light, replicate 1	Renilla control light, replicate 2	activity call
vri (vrille)	1		4658	7233	516	875	inactive
CG15550	1		5041		2202		inactive
ind (intermediate neuroblasts defective)	1		6036		685		inactive
CG15468	1		14658		5829		inactive
hrg (hiiragi)	1	Wg reporter activity lowered	3105		1491		inactive
TBC1D5 (TBC1 domain family member 5)	1		5093		2085		inactive
CG11417	1		1187	4006	701	1224	inactive
CR17567 (retired record)	1		4424	12617	1052	3987	inactive
CR17567 (retired record)	2		5.12e5	4.75e5	1.35e5	1.20e5	inactive
Dcp-1 (Death caspase-1)	1		15875		4466		inactive
AstA-R2 (Allatostatin A receptor 2)	1		7398		2280		inactive
Arpc5 (Actin-related protein 2/3 complex, subunit 5)	1		2073	6666	887	1987	inactive
CG3257	1		11286		4800		inactive
Or49a (Odorant receptor 49a)	1		6615		2390		inactive
Spred (Sprouty-related protein with EVH-1 domain)	1		17339		4406		inactive
CG34135 + Nasp + CG11768	1		20869		3140		inactive
CG34135 + Nasp + CG11768	2		19068		4853		inactive
Pex14 (Peroxin 14)	1		15621		5332		inactive
CG42490 (retired record)	1		21313		9805		inactive
otp (orthopedia)	1	Wg reporter activity raised	4898	11956	460	1376	active
otp (orthopedia)	2		3431	12080	528	1894	inactive
CG30039	1		2.38e5	2.58e5	1.06e5	1.06e5	inactive
SmF (Small ribonucleoprotein particle protein SmF)	1	Wg reporter activity lowered	6675		2179		inactive
Yif1 (Yip1-interacting factor 1)	1		4282		2091		inactive
CG33463	1		3.65e5	3.86e5	1.54e5	1.22e5	inactive
Nipsnap	1		1866	5520	961	2538	inactive
Jasper (JIL-1 anchoring and stabilizing protein)	1		2362	5466	925	1872	inactive
Pld3 (Phospholipase D family member 3)	1		5994		2168		inactive
CG14095	1		13003		3961		inactive
lov (jim lovell)	1		2321	9445	685	4032	inactive
CG10195	1		3440	8532	962	3467	inactive
CG15597	1		11729	7.73e5	3019	4.08e5	inactive
CG7639	1		5317		1968		inactive
bonsai	1		2651	6549	706	2588	inactive
CG32241	1		4237		1569		inactive
CG32241	2		7.67e5	8.98e5	2.34e5	2.03e5	inactive
HP1b (Heterochromatin Protein 1b)	1		21112		14168		inactive
CG34370	1		34400		11104		inactive
CG34370	2		1861	7542	704	2968	inactive
CG34370	3		2544	7698	810	2689	inactive
CG34370	4		3024	10002	586	1985	inactive
dgt3 (dim gamma-tubulin 3)	1		7141		1659		inactive
lncRNA:CR32553 (long non-coding RNA:CR32553)	1		4184		1196		inactive
Klf15 (Kruppel-like factor 15)	1		16928		7533		inactive
CG16825	1		2300	6786	381	3152	inactive
CG32354	1		5316		1841		inactive
CG32354	2		2117	9554	2192	5808	inactive
CG32354	3		5.99e5	6.22e5	2.95e5	3.09e5	inactive
RluA-1 (RluA pseudouridine synthase 1)	1		2034	4800	661	3068	inactive
RluA-1 (RluA pseudouridine synthase 1)	2		2551	6693	613	2861	inactive
Gr93b (Gustatory receptor 93b)	1		7.83e5	4.24e5	2.45e5	2.19e5	inactive
UGP + PGRP-LF	1		6858		3520		inactive
CG34165	1	Wg reporter activity raised	5337	13335	615	1232	active
rols (rolling pebbles)	1		6950		2224		inactive
rols (rolling pebbles)	2		6100		2427		inactive
rols (rolling pebbles)	3		5463		2163		inactive
Gal (beta galactosidase)	1		1485	6357	680	1936	inactive
Mcm6 (Minichromosome maintenance 6)	1		1658	6256	584	1747	inactive
pk (prickle)	1		2104	4889	499	1872	inactive
pk (prickle)	2		2893	8179	930	4240	inactive
pk (prickle)	3		7.60e5	7.68e5	2.98e5	2.74e5	inactive
ND-42 (NADH dehydrogenase (ubiquinone) 42 kDa subunit)	1		3516	4432	1145	1257	inactive
CG10340	1		2969	7113	1596	2096	inactive
CG13449	1		7872		3276		inactive
CG14866	1		19572		3016		inactive
CG18428	1		17235		13424		inactive
CG16820	1		15125		3520		inactive
CLIP-190 (Cytoplasmic linker protein 190)	1		20826		4819		inactive
CG13670	1		1323	8864	1124	3971	inactive
CG13623	1		15005		11420		inactive
CYLD (Cylindromatosis)	1		2205	9299	876	3942	inactive
Dscam3 (Down syndrome cell adhesion molecule 3)	1		13168		3400		inactive
Dscam3 (Down syndrome cell adhesion molecule 3)	2		14928		4739		inactive
